Measurements reported in the supplement of paper PMC12823440, “Inhibitors supercharge kinase turnover through native proteolytic circuits” (Nature, 2025).
Structures can show the parent of a compound that is named as a salt. This is one part of the list. The calls rarely recur for the same compound in another form.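 Kinases were expressed as nanoluciferase fusions in K562 cells and luminescence was read every 4 h between 2 and 18 h as percent of control, DMSO set to 100% and a positive control to 0%. A time point counts as decreased when the signal drops significantly (2 sigma). The hit call is the authors' own, does not follow from the count of time points alone, and its rule is not shown.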

Chains of the proteins cited; added tags and fusions are not shown. Lines headed by an entry give the natural chain unless they say otherwise; changes in a name come on top.
UniProt P28482, whole entry: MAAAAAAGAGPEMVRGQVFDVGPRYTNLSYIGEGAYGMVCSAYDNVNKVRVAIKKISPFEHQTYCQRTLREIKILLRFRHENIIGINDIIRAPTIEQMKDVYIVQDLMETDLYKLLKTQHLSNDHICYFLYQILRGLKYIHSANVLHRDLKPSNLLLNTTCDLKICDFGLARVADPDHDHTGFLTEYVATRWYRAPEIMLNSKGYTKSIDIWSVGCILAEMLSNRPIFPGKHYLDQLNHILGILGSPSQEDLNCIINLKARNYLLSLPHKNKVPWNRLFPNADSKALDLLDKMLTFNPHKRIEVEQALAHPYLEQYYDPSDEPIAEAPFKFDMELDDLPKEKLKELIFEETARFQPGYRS
UniProt Q9BUB5: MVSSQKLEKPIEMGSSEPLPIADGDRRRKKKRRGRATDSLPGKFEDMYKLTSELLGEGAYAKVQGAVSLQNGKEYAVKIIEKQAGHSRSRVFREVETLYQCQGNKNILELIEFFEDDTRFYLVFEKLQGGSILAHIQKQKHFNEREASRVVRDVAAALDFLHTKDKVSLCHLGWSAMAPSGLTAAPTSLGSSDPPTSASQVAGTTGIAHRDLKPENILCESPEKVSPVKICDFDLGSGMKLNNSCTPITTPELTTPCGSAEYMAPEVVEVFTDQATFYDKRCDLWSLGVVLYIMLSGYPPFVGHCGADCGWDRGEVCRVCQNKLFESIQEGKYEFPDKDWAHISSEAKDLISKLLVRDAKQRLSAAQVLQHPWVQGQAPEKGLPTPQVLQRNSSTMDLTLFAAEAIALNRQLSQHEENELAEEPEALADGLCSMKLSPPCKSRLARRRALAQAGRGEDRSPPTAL
UniProt Q16620, whole entry, looked up: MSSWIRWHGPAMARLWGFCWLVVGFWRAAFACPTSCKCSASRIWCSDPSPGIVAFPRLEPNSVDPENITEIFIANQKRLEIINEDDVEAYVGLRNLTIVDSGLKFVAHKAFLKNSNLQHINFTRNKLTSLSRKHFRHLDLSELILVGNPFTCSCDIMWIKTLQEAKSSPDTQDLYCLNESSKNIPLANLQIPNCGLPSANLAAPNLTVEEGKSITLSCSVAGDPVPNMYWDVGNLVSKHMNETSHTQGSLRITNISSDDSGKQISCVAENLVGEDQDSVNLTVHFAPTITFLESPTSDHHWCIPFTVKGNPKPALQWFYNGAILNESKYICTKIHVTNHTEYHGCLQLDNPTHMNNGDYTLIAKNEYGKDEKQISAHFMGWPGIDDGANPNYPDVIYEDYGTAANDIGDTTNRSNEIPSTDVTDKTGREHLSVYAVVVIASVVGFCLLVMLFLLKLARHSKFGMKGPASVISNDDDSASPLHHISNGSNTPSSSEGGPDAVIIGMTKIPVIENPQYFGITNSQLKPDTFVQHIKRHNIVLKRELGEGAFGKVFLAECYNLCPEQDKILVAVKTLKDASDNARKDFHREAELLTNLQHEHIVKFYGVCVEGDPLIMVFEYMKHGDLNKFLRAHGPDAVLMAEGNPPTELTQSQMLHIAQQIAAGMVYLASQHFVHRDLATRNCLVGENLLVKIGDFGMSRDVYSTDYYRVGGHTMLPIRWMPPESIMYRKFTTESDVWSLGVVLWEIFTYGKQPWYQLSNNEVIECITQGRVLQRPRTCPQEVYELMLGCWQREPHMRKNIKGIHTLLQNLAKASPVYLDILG
UniProt O96013: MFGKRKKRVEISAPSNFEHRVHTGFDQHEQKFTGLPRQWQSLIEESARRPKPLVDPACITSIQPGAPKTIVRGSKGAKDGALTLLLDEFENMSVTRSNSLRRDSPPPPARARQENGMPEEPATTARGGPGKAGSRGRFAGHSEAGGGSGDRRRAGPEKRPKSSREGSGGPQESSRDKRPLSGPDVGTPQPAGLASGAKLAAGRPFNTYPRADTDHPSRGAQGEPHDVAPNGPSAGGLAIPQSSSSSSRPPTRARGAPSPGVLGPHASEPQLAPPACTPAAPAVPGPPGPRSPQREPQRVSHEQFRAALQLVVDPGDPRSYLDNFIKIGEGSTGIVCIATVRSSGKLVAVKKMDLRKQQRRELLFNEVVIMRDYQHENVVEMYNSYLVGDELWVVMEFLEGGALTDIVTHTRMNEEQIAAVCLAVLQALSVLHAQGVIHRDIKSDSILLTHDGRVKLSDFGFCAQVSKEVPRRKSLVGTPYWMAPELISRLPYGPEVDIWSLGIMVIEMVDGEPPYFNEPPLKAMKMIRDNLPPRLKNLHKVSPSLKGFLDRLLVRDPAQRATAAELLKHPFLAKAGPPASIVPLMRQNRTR
UniProt P09619, whole entry: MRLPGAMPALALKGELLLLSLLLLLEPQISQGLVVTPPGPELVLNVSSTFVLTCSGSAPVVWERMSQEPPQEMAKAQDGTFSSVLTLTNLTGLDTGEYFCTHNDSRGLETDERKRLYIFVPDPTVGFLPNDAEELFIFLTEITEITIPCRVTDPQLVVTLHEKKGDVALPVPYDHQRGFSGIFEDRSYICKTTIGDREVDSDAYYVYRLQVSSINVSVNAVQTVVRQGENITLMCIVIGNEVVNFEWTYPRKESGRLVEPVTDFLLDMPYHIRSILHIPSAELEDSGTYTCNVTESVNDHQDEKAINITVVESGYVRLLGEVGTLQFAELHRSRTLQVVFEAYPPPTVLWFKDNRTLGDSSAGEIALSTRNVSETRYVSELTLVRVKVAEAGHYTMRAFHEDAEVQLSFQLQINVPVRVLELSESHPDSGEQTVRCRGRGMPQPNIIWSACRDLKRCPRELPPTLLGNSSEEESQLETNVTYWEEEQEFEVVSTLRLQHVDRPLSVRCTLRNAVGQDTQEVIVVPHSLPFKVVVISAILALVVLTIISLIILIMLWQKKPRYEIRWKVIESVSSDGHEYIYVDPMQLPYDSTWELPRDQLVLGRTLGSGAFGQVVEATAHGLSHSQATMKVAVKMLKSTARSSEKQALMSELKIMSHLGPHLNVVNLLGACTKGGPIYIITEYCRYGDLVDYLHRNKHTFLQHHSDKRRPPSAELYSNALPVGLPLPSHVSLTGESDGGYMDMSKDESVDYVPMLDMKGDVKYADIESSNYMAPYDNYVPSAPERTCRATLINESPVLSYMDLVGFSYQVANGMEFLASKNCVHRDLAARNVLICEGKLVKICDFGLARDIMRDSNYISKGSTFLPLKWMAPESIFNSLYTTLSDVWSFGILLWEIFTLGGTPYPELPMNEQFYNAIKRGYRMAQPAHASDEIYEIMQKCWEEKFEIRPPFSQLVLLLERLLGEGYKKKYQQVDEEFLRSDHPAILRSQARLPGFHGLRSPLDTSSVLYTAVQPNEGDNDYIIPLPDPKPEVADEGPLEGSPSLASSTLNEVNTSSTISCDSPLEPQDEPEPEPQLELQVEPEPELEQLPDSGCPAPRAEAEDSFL
UniProt Q15118, whole entry, looked up: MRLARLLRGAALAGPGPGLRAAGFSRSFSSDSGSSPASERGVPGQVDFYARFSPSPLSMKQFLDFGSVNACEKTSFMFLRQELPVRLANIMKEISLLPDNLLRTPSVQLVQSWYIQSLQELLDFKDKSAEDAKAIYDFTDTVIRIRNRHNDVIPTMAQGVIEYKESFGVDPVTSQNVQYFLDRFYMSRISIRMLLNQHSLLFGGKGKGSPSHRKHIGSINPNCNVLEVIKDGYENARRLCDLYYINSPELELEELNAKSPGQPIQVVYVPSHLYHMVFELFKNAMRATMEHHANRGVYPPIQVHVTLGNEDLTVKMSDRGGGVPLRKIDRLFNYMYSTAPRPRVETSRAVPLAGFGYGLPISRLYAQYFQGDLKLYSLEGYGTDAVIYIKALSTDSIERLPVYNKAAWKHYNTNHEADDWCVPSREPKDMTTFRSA
UniProt P42356, whole entry, looked up: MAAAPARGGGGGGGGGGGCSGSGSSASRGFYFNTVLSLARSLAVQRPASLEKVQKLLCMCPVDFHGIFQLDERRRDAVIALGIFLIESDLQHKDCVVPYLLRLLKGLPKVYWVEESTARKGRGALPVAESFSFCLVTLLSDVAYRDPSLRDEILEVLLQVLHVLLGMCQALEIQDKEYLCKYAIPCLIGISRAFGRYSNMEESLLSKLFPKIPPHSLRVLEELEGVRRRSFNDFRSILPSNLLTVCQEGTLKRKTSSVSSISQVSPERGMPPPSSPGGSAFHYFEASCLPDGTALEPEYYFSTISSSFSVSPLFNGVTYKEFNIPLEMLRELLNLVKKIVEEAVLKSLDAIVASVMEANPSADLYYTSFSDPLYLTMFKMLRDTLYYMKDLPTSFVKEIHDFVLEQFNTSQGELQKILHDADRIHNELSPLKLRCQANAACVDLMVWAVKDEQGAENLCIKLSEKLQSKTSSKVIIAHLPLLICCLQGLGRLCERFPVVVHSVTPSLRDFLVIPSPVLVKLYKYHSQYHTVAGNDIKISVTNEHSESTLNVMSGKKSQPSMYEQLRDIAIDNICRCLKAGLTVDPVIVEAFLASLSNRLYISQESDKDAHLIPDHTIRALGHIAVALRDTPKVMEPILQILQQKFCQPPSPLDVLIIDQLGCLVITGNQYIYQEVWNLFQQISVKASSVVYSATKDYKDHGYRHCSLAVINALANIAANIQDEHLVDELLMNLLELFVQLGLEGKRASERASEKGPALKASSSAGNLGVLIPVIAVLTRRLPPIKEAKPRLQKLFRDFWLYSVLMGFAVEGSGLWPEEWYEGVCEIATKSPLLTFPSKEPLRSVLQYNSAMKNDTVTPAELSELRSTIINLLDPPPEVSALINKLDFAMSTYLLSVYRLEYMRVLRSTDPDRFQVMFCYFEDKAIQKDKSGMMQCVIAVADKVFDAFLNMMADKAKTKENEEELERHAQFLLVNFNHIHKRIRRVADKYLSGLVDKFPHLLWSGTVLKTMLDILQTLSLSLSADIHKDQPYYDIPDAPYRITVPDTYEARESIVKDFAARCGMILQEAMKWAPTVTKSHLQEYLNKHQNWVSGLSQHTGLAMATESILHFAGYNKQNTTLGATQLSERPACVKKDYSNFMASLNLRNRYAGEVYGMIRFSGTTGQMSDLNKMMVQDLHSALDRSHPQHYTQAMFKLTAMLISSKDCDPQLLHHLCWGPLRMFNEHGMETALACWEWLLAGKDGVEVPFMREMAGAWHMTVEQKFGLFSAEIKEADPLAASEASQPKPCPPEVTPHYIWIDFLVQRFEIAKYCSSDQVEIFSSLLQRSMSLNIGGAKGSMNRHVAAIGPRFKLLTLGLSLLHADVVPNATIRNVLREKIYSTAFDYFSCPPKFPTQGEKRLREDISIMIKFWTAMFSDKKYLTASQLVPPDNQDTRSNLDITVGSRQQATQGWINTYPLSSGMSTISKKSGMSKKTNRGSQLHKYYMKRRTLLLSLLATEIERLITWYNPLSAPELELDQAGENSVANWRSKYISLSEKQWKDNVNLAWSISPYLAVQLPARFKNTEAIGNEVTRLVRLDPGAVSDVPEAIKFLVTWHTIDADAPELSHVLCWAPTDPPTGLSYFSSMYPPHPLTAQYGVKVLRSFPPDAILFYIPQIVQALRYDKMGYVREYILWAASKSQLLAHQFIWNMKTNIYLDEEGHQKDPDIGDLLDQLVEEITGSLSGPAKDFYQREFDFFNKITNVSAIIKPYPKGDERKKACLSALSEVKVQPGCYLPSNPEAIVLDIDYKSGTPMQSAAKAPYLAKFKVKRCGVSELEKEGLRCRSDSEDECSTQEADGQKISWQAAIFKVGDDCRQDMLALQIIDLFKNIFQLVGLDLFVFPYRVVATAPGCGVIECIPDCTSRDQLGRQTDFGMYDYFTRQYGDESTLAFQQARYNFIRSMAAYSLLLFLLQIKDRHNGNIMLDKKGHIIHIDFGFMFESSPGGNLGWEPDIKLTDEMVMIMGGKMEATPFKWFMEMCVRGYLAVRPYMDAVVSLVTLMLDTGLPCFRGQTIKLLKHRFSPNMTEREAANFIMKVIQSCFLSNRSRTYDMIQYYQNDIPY

Tests used:
Experiment in all cases: kinase-Nluc reporter destabilization hit call (1 = scored as downregulated) (binary); higher = compound decreases kinase abundance
Conditions in all cases: K562, 2-18 h
MAPK1 = MAPK1 (UniProt P28482)
MAPK4 = MAPK4 (UniProt P31152)
MAPKAPK2 = MAPKAPK2 (UniProt P49137)
MKNK1 = MKNK1 (UniProt Q9BUB5)
NTRK2 = NTRK2 (UniProt Q16620)
NTRK3 = NTRK3 (UniProt Q16288)
PAK4 = PAK4 (UniProt O96013)
PBK = PBK (UniProt Q96KB5)
PDGFRB = PDGFRB (UniProt P09619)
PDK1 = PDK1 (UniProt Q15118)
PDPK1 = PDPK1 (UniProt O15530)
PIK4CA = PIK4CA (UniProt P42356)
PIK4CB = PIK4CB (UniProt Q9UBF8)
PLK1 = PLK1 (UniProt P53350)
PRKAA1 = PRKAA1 (UniProt Q13131)
PRKCA = PRKCA (UniProt P17252)
PTK2 = PTK2 (UniProt Q05397)
PTK2B = PTK2B (UniProt Q14289)
RAF1 = RAF1 (UniProt P04049)
[1] = biological target: RAF1_S257L (clone: RAF1_mut) (UniProt P04049)

Measured: kinase-Nluc reporter destabilization hit call

COc1cc2nccc(Nc3cc(OC)c(OC)c(OC)c3)c2cc1OC [GAK inhibitor 49 (hydrochloride)]
inactive: MAPK1; 10 µM 0 | MAPK4; 10 µM 0 | MAPKAPK2; 10 µM 0 | MKNK1; 10 µM 0 | NTRK2; 10 µM 0 | NTRK3; 10 µM 0 | PAK4; 10 µM 0 | PBK; 10 µM 0 | PDGFRB; 10 µM 0 | PDK1; 10 µM 0 | PDPK1; 10 µM 0 | PIK4CA; 10 µM 0 | PIK4CB; 10 µM 0 | PLK1; 10 µM 0 | PRKAA1; 10 µM 0 | PRKCA; 10 µM 0 | PTK2; 10 µM 0 | PTK2B; 10 µM 0 | RAF1; 10 µM 0 | [1]; 10 µM 0

Cc1[nH]c(/C=C2\C(=O)Nc3ccc(F)cc32)c(C)c1C(=O)NCCN1CCCC1 [Toceranib (phosphate)]
inactive: MAPK1; 2 µM 0 | MAPK4; 2 µM 0 | MAPKAPK2; 2 µM 0 | MKNK1; 2 µM 0 | NTRK2; 2 µM 0 | NTRK3; 2 µM 0 | PAK4; 2 µM 0 | PBK; 2 µM 0 | PDGFRB; 2 µM 0 | PDK1; 2 µM 0 | PDPK1; 2 µM 0 | PIK4CA; 2 µM 0 | PIK4CB; 2 µM 0 | PLK1; 2 µM 0 | PRKAA1; 2 µM 0 | PRKCA; 2 µM 0 | PTK2; 2 µM 0 | PTK2B; 2 µM 0 | RAF1; 2 µM 0 | [1]; 2 µM 0

C=CC(=O)Nc1cc2c(Nc3ccc(F)c(Cl)c3)ncnc2cc1C#CC(C)(C)N1CCN(C)CC1 [AV-412 (free base)]
inactive: MAPK1; 2.5 µM 0 | MAPK4; 2.5 µM 0 | MAPKAPK2; 2.5 µM 0 | MKNK1; 2.5 µM 0 | NTRK2; 2.5 µM 0 | NTRK3; 2.5 µM 0 | PAK4; 2.5 µM 0 | PBK; 2.5 µM 0 | PDGFRB; 2.5 µM 0 | PDK1; 2.5 µM 0 | PDPK1; 2.5 µM 0 | PIK4CA; 2.5 µM 0 | PIK4CB; 2.5 µM 0 | PLK1; 2.5 µM 0 | PRKAA1; 2.5 µM 0 | PRKCA; 2.5 µM 0 | PTK2; 2.5 µM 0 | PTK2B; 2.5 µM 0 | RAF1; 2.5 µM 0 | [1]; 2.5 µM 0

CNc1ncc2cc(-c3ccc(-c4cccc(C)n4)cc3Cl)c(=O)n(C[C@H]3OC[C@H](N)CO3)c2n1 [G-5555 (hydrochloride)]
inactive: MAPK1; 10 µM 0 | MAPK4; 10 µM 0 | MAPKAPK2; 10 µM 0 | MKNK1; 10 µM 0 | NTRK2; 10 µM 0 | NTRK3; 10 µM 0 | PAK4; 10 µM 0 | PBK; 10 µM 0 | PDGFRB; 10 µM 0 | PDK1; 10 µM 0 | PDPK1; 10 µM 0 | PIK4CA; 10 µM 0 | PIK4CB; 10 µM 0 | PLK1; 10 µM 0 | PRKAA1; 10 µM 0 | PRKCA; 10 µM 0 | PTK2; 10 µM 0 | PTK2B; 10 µM 0 | RAF1; 10 µM 0 | [1]; 10 µM 0

COCCOc1cc(F)c2c(Nc3ccc(NC(=O)Cn4cc(C(C)C)nn4)cc3)ncnc2c1
inactive: MAPK1; 10 µM 0 | MAPK4; 10 µM 0 | MAPKAPK2; 10 µM 0 | MKNK1; 10 µM 0 | NTRK2; 10 µM 0 | NTRK3; 10 µM 0 | PAK4; 10 µM 0 | PBK; 10 µM 0 | PDGFRB; 10 µM 0 | PDK1; 10 µM 0 | PDPK1; 10 µM 0 | PIK4CA; 10 µM 0 | PIK4CB; 10 µM 0 | PLK1; 10 µM 0 | PRKAA1; 10 µM 0 | PRKCA; 10 µM 0 | PTK2; 10 µM 0 | PTK2B; 10 µM 0 | RAF1; 10 µM 0 | [1]; 10 µM 0

O=C(O)c1ccc2c(c1)nc(Nc1cccc(Cl)c1)c1ccncc12 [Silmitasertib]
inactive: MAPK1; 10 µM 0 | MAPK4; 10 µM 0 | MAPKAPK2; 10 µM 0 | MKNK1; 10 µM 0 | NTRK2; 10 µM 0 | NTRK3; 10 µM 0 | PAK4; 10 µM 0 | PBK; 10 µM 0 | PDGFRB; 10 µM 0 | PDK1; 10 µM 0 | PDPK1; 10 µM 0 | PIK4CA; 10 µM 0 | PIK4CB; 10 µM 0 | PLK1; 10 µM 0 | PRKAA1; 10 µM 0 | PRKCA; 10 µM 0 | PTK2; 10 µM 0 | PTK2B; 10 µM 0 | RAF1; 10 µM 0 | [1]; 10 µM 0

N#CCC1(n2cc(-c3ncnc4[nH]ccc34)cn2)CN(C2CCN(C(=O)c3ccnc(C(F)(F)F)c3F)CC2)C1 [Itacitinib adipate]
inactive: MAPK1; 10 µM 0 | MAPK4; 10 µM 0 | MAPKAPK2; 10 µM 0 | MKNK1; 10 µM 0 | NTRK2; 10 µM 0 | NTRK3; 10 µM 0 | PAK4; 10 µM 0 | PBK; 10 µM 0 | PDGFRB; 10 µM 0 | PDK1; 10 µM 0 | PDPK1; 10 µM 0 | PIK4CA; 10 µM 0 | PIK4CB; 10 µM 0 | PLK1; 10 µM 0 | PRKAA1; 10 µM 0 | PRKCA; 10 µM 0 | PTK2; 10 µM 0 | PTK2B; 10 µM 0 | RAF1; 10 µM 0 | [1]; 10 µM 0

COc1ncc(F)cc1CNc1ccc(Cc2c[nH]c3ncc(C)cc23)c(F)n1
inactive: MAPK1; 10 µM 0 | MAPK4; 10 µM 0 | MAPKAPK2; 10 µM 0 | MKNK1; 10 µM 0 | NTRK2; 10 µM 0 | NTRK3; 10 µM 0 | PAK4; 10 µM 0 | PBK; 10 µM 0 | PDGFRB; 10 µM 0 | PDK1; 10 µM 0 | PDPK1; 10 µM 0 | PIK4CA; 10 µM 0 | PIK4CB; 10 µM 0 | PLK1; 10 µM 0 | PRKAA1; 10 µM 0 | PRKCA; 10 µM 0 | PTK2; 10 µM 0 | PTK2B; 10 µM 0 | RAF1; 10 µM 0 | [1]; 10 µM 0

C#Cc1cccc(Nc2ncnc3cc4c(cc23)OCCOCCOCCO4)c1 [Icotinib]
inactive: MAPK1; 10 µM 0 | MAPK4; 10 µM 0 | MAPKAPK2; 10 µM 0 | MKNK1; 10 µM 0 | NTRK2; 10 µM 0 | NTRK3; 10 µM 0 | PAK4; 10 µM 0 | PBK; 10 µM 0 | PDGFRB; 10 µM 0 | PDK1; 10 µM 0 | PDPK1; 10 µM 0 | PIK4CA; 10 µM 0 | PIK4CB; 10 µM 0 | PLK1; 10 µM 0 | PRKAA1; 10 µM 0 | PRKCA; 10 µM 0 | PTK2; 10 µM 0 | PTK2B; 10 µM 0 | RAF1; 10 µM 0 | [1]; 10 µM 0
